According to publication PMC10183819:
These are yes or no findings as the source states them, for the method shown. Binding calls can cover weak binding; strength is not graded here. Sequences can lack the tags named with a protein.

Target: Gal4-GFZF (Gal4 DNA-binding domain fusion of GFZF) (D. melanogaster)
Assay: DNA affinity purification with a DNA-tethered Gal4 fusion, western blot; bead-immobilised 121-bp housekeeping DRE promoter with 4xUAS sites first incubated with nuclear extract containing the Gal4-DBD fusion, extract removed, then nuclear extract containing TFIIA-L-AID-3xFLAG; sheared salmon sperm competitor DNA 600 ng to 1.6 μg per reaction; eluates blotted with a FLAG antibody

binding: binds
B1: TFIIA-L-AID-3xFLAG (endogenously C-terminally tagged TFIIA-L) (protein, UniProt P52654 1-366)
chain: MALCQTSVLKVYHAVIEDVITNVRDAFLDEGVDEQVLQEMKQVWRNKLLASKAVELSPDSGDGSHPPPIVANNPKSHKAANAKAKKAAAATAVTSHQHIGGNSSMSSLVGLKSSAGMAAGSGIRNGLVPIKQEVNSQNPPPLHPTSAASMMQKQQQAASSGQGSIPIVATLDPNRIMPVNITLPSPAGSASSESRVLTIQVPASALQENQLTQILTAHLISSIMSLPTTLASSVLQQHVNAALSSANHQKTLAAAKQLDGALDSSDEDESEESDDNIDNDDDDDLDKDDDEDAEHEDAAEEEPLNSEDDVTDEDSAEMFDTDNVIVCQYDKITRSRNKWKFYLKDGIMNMRGKDYVFQKSNGDAEW
